Assay: general procedure: solution-phase peptide synthesis; ethyl-N-dimethylpropylamine carbodiimide / 2-hydroxypyridine-N-oxide
Conditions: late stage modification step

**Q.** With H-Inp-(D)Bal-(D)Trp-Phe-Apc-NH2 as the substance, how does the step yield read?
**A.** 70%

Reference: patent US20210253634 (published 2021)
